Article PMC5561105
No constants are given. Whether binding was seen depends on the method and setting. In cells and extracts the contact can be indirect. Some binding calls cover weakened binding; strength is not graded here.

By UniProt entry, the sequences of proteins in these tests, tags left out.
UniProt P25490: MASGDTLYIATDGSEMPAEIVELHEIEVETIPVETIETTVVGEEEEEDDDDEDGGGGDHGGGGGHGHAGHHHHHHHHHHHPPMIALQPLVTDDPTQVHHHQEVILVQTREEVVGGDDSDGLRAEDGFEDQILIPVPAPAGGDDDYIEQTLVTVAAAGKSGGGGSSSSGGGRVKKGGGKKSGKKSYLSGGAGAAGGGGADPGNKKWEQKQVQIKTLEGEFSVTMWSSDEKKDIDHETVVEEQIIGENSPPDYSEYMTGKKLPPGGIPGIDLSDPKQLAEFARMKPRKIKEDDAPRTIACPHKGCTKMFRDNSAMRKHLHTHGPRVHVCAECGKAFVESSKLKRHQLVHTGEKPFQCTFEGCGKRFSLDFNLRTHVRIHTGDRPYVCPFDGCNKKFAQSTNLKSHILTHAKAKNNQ
UniProt Q96KQ7: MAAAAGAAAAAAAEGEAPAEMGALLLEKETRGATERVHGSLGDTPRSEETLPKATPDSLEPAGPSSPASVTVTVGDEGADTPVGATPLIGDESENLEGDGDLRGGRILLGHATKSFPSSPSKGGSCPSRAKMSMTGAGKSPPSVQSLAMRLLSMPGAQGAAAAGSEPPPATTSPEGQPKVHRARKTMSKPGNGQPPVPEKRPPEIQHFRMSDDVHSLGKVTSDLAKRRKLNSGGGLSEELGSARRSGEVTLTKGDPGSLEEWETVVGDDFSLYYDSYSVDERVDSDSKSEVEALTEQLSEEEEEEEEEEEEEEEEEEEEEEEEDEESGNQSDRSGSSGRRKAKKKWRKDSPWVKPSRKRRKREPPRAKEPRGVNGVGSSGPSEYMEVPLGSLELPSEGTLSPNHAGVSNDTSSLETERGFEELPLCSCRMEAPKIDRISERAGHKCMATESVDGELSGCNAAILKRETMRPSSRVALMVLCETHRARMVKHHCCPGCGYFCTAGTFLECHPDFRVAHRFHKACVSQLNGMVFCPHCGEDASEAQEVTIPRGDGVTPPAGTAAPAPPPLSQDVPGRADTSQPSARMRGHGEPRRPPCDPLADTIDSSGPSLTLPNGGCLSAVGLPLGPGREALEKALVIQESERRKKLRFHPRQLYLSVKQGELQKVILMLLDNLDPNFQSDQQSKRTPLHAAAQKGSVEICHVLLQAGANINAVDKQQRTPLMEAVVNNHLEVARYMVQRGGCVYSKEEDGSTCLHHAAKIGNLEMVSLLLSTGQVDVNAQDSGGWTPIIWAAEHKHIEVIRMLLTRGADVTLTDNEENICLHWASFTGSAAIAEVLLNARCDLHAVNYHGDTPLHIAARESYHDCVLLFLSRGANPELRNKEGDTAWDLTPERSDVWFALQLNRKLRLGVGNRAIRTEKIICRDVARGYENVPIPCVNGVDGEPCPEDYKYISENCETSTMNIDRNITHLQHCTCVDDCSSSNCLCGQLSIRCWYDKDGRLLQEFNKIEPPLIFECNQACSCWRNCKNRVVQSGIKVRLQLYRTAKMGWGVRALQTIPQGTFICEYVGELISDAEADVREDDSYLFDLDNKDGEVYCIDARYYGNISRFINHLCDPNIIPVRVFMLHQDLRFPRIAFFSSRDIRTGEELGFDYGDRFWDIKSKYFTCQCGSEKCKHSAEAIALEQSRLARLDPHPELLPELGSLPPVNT
UniProt Q13547: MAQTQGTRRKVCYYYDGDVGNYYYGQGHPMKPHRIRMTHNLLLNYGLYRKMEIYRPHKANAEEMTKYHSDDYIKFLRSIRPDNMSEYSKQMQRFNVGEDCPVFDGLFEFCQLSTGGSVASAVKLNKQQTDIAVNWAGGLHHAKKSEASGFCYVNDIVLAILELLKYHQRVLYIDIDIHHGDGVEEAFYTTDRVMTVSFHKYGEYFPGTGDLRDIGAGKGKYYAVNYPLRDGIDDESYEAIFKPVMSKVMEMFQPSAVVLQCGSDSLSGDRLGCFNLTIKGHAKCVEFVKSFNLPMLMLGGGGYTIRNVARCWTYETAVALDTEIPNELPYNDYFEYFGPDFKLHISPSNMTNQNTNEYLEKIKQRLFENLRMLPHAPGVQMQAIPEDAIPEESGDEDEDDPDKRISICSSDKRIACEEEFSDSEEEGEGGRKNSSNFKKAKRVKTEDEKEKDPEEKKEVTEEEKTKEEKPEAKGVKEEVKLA

Legend:
[1] = molecular target: YY1 (human (in 293T and MDA-MB-231 cells)) (UniProt P25490); test: co-IP; total cell extracts of 293T and MDA-MB-231 cells, precleared with protein A-agarose; incubated with anti-G9a or anti-YY1 overnight at 4 °C, then protein A/G-agarose beads; immunoblot with anti-YY1 or anti-HDAC1
G9a (human) = G9a (human) (UniProt Q96KQ7); test: as above

Row | binding [1] | binding (G9a (human)) | Substance
1 | binds | binds | HDAC1 (from UniProt Q13547 1-482)
2 |  | binds | YY1 (from UniProt P25490 1-414)
